This is an account of results in the supplement of paper PMC12819154, “High-throughput peptide-centric local stability assay extends protein–ligand identification to membrane proteins, tissues and bacteria” (Nature Structural & Molecular Biology, 2025).

By UniProt entry, the sequences of proteins in these tests, tags left out. Where a name states a change or a piece, a line headed by the entry shows the natural chain unless it says otherwise.
UniProt O60238, whole entry: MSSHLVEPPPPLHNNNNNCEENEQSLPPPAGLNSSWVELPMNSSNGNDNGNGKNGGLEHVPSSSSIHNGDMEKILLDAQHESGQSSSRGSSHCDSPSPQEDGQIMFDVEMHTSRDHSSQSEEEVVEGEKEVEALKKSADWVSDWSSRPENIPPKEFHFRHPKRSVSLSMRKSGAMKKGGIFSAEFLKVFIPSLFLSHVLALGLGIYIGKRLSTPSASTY
UniProt O60936: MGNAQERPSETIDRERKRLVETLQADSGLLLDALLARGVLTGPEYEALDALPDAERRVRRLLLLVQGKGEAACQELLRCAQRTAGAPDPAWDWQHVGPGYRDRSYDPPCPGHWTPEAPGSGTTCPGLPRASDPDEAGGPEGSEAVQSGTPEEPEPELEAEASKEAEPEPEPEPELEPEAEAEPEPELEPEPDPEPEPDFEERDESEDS
UniProt O43683: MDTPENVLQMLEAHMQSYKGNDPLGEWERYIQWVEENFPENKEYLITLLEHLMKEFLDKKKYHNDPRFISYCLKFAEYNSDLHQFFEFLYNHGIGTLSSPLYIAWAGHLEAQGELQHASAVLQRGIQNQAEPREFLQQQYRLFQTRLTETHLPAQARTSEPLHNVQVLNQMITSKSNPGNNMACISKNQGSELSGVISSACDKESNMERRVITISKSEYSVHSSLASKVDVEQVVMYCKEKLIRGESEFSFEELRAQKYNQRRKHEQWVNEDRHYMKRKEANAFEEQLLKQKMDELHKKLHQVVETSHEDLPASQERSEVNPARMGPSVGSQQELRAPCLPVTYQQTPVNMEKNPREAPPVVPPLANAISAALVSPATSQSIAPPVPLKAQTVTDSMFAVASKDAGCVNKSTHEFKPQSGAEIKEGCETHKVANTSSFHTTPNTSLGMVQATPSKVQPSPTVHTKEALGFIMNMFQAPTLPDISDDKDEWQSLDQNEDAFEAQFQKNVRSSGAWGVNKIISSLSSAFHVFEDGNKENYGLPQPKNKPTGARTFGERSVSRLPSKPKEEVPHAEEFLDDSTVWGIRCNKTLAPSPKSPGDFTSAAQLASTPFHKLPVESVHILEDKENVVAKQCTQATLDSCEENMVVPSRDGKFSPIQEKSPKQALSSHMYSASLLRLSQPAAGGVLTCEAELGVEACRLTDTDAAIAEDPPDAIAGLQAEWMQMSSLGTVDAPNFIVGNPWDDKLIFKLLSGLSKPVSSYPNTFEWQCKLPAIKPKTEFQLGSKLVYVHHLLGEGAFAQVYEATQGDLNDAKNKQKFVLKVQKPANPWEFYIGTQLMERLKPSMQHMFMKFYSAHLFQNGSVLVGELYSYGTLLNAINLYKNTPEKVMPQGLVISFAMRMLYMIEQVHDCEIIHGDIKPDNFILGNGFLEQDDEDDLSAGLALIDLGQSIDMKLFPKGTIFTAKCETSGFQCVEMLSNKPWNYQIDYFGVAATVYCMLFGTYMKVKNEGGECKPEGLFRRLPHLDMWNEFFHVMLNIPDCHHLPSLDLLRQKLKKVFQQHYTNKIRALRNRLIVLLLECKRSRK
UniProt O43572: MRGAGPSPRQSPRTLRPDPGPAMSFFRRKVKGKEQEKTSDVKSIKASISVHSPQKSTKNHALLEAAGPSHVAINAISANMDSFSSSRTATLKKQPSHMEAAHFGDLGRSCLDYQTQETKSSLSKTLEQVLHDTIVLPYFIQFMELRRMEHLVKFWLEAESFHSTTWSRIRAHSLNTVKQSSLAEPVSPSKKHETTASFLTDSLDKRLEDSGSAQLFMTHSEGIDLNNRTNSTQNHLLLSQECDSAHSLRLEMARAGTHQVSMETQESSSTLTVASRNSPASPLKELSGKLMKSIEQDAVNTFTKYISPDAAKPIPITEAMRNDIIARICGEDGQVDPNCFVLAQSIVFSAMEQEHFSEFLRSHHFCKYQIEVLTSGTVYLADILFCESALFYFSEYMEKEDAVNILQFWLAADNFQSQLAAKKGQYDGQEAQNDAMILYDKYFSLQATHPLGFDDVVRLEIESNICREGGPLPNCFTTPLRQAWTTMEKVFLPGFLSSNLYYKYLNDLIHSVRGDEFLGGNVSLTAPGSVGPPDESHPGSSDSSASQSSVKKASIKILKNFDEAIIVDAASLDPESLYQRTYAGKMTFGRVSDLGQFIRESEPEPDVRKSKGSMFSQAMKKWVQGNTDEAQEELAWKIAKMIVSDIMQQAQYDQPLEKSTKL
UniProt O43242, whole entry: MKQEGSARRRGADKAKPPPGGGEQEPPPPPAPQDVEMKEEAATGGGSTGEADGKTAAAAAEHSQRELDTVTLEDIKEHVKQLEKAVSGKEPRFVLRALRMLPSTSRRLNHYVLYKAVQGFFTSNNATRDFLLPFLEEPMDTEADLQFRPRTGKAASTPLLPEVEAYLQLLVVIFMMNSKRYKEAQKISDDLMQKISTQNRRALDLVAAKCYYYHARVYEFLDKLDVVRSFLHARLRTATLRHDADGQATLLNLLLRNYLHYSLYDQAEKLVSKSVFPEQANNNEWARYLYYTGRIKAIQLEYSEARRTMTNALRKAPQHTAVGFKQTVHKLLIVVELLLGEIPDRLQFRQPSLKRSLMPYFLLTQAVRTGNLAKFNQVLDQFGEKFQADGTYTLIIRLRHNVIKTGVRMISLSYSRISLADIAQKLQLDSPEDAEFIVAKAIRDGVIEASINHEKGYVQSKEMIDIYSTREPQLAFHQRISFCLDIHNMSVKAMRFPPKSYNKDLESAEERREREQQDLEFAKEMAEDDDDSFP
UniProt O43463: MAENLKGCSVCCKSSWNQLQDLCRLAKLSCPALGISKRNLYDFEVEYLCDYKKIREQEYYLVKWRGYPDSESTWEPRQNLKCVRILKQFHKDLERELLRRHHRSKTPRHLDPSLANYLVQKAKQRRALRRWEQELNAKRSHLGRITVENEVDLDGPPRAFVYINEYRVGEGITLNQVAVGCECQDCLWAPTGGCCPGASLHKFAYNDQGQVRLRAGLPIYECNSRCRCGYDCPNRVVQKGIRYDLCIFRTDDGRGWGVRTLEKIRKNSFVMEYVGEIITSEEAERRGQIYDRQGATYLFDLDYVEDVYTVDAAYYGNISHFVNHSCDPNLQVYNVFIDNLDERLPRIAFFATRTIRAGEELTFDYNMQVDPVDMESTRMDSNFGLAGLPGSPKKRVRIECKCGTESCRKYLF
UniProt O43776: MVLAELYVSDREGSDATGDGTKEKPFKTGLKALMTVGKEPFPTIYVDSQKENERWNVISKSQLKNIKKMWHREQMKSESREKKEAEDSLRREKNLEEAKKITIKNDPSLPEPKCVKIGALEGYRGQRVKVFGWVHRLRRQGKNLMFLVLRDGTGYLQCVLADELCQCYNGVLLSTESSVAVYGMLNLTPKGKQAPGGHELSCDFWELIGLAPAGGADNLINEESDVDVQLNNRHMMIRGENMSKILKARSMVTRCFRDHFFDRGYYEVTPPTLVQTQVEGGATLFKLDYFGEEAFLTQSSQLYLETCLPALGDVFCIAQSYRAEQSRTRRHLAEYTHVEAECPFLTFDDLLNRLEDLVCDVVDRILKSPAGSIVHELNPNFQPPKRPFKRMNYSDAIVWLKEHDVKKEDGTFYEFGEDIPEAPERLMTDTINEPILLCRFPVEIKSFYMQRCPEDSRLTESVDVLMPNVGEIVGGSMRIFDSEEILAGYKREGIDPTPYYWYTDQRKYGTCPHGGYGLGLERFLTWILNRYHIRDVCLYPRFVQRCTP
UniProt O43709: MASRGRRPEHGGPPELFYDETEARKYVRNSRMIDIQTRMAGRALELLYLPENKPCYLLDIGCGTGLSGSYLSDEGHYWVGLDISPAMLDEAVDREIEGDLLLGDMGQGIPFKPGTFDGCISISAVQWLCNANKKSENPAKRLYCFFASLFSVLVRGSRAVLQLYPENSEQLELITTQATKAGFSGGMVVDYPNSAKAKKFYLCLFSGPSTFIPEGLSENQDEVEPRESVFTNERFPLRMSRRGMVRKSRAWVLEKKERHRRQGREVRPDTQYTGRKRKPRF

This is one part of the list. Most entries show no effect beyond the scatter of the controls.

Compound in this experiment: CN[C@@H]1C[C@H]2O[C@@](C)([C@@H]1OC)n1c3ccccc3c3c4c(c5c6ccccc6n2c5c31)C(=O)NC4 [staurosporine]
The experiment can be described thus: log2 fold change of tryptic peptide abundance, ligand vs vehicle (limited proteolysis) (log2 ratio); higher = more trypsin-susceptible (destabilized). The conditions noted are these: ligand concentration: 20 uM; sample: K562 cleared lysate; digestion: 4 min, 22 C (HT-PELSA RT4min, Orbitrap Astral).
As for “BNIP3L (peptide sequence: DHSSQSEEEVVEGEKEVEALKK, peptide start residue: 115) (UniProt O60238)”, the log2 fold change amounted to 0.396. In the case of “NOL3 (peptide sequence: LLLLVQGK, peptide start residue: 61) (UniProt O60936)” it was 0.165; in that of “BUB1 (peptide sequence: NQGSELSGVISSACDKESNMERR, peptide start residue: 188) (UniProt O43683)”, -0.233; in that of “AKAP10 (peptide sequence: TLRPDPGPAMSFFR, peptide start residue: 14) (UniProt O43572)”, 0.367. Then “PSMD3 (peptide sequence: LQLDSPEDAEFIVAK, peptide start residue: 426) (UniProt O43242)”, with -0.374; and “UniProt O43463 (peptide sequence: AFVYINEYR, peptide start residue: 159)”, with -0.611. In the case of “UniProt O43776 (peptide sequence: FLTWILNR, peptide start residue: 523)” it was -0.206.

As to “UniProt O43709 (peptide sequence: GRRPEHGGPPELFYDETEAR, peptide start residue: 5)”, the log2 fold change was -0.256.
